# From article PMC8315023
# The chains behind the UniProt entries cited, without tags or fusion partners.
# UniProt P01106: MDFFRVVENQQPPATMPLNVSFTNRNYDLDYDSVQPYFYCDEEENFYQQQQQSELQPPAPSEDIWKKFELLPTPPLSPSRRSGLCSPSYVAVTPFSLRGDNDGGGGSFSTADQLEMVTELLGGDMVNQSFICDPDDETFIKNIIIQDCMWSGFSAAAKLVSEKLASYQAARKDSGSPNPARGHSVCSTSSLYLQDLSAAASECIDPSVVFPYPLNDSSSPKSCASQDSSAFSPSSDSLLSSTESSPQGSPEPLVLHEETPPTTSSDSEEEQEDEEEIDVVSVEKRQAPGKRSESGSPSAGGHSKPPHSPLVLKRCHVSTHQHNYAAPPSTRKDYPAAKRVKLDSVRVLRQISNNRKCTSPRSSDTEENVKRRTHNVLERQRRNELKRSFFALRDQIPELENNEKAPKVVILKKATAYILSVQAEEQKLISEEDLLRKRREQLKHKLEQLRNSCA
# No constants are given. Whether binding was seen depends on the method and setting. In cells and extracts the contact can be indirect. Some entries that bind do so weakly or less than the wild type.
# Biological target: sequestosome 1 (SQSTM1, best known as p62) (human (endogenous in VSMCs)) (UniProt Q13501)
# Assay: co-IP; whole-cell lysates of VSMCs (cells also treated with celastrol, with or without CQ) immunoprecipitated with anti-c-MYC or anti-p62 antibody and blotted with anti-p62 or anti-c-MYC antibody
substance,measurement,value
c-MYC (from UniProt P01106 1-454),binding,binds
